Results on two sequences are retold here after paper PMC3365051, “Sequence-Specific Binding of Recombinant Zbed4 to DNA: Insights into Zbed4 Participation in Gene Transcription and Its Association with Other Proteins”.

Negatives hold for the conditions tested. At least one verdict was read from the data and is not stated in words by the source. Where a protein sequence is shown, tags need not be part of it.

The series concerns the target T1, Zbed4 (mouse (cDNA from mouse retinal RNA)) (UniProt Q80WQ9).
T1 sequence (looked up): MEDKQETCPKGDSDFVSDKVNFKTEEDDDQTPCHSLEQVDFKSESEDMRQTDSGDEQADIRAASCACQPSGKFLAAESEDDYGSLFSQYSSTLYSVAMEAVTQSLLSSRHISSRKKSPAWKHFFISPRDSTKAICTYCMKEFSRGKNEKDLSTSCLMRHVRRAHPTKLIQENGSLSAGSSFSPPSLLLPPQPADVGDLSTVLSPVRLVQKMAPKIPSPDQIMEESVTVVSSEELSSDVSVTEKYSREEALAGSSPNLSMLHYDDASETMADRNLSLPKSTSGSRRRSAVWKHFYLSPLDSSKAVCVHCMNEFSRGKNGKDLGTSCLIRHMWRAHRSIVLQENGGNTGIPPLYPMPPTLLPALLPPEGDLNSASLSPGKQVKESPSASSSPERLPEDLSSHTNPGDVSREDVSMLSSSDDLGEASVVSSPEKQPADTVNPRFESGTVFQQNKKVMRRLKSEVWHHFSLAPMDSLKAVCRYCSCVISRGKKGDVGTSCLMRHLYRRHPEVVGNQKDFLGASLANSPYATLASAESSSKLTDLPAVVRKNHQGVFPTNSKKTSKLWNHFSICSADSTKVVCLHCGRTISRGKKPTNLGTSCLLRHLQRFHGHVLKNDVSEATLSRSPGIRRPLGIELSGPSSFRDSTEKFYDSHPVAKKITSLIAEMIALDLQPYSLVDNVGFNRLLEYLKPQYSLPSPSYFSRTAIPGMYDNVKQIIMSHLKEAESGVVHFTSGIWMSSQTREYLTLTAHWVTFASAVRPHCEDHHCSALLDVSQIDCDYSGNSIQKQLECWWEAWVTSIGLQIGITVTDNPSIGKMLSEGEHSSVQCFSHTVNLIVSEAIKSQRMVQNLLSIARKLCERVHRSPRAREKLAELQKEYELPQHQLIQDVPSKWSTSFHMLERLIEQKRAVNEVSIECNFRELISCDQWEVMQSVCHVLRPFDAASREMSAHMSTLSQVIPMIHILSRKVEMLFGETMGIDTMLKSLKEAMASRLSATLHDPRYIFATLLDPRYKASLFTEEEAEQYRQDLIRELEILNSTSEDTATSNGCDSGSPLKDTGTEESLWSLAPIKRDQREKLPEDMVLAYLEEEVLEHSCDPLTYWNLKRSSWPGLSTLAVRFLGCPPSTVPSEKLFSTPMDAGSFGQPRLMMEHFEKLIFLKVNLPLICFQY
Kind of series: EMSA. To be noted: 20 ug Zbed4, 0.5 nM oligo in 20 mM HEPES pH 7.5, 150 mM NaCl, 5 mM beta-mercaptoethanol, 5% glycerol, 0.5 mM ascorbic acid, 0.5 mM propyl gallate, 10 uM ZnSO4; recombinant protein; residues 1-1168; protein details: C-terminal His8; single-stranded DNA. For orientation: A gel shift assay detects complexes by their altered migration in electrophoresis.

On to AAAAAAAAGGGGAAAAAAAA [G4], for which the binding result is reported as “no binding”. On to AAAAAAAAGGGAAAAAAAAA [G3], for which the binding result was “no binding”.
